Test results: patent US20260207537A1, “PHARMACEUTICAL COMPOSITION FOR PREVENTION AND TREATMENT OF AORTIC ANEURYSM, AND PROCESSED FOOD” (priority 2020, published 2026)

System: abdominal aortic aneurysm
Experiment: Regression of established abdominal aortic aneurysm, administration from Day 7 (Example 3)
Format: in vivo, rat
Method: SD-male rats of 4 weeks old (70 to 90 G) were used. The rats were subjected to the above-described abdominal aortic aneurysm induction treatment. On Day 7, the abdomen of the rat was opened to confirm the occurrence of an abdominal aortic aneurysm, the vessel diameter was measured, and then the abdomen was closed. Subsequently, a control group was fed normal feed and water, while a tricaprin administration group was fed tricaprin in an amount of 1,145 MG/KG/day in addition to the normal feed.
Seven days after the abdominal closure (Day 14 after the abdominal aortic aneurysm induction treatment), the abdomen was opened again, and the blood vessel diameter was measured. Some rats of the control group were not subjected to laparotomy on Day 14 and continued to be fed normal feed and water. The amount of the neutral fats in the blood vessel, the amount of lipids in the blood, the blood glucose level, and the body weight were measured from the day when the abdominal aortic aneurysm induction treatment was performed.
FIGS. 3(A), 3(B), and 3(C) show the control group (depicted as “CONTROL”), and FIGS. 3(D), 3(E), and 3(F) show the tricaprin administration group (depicted as “C10-TG”).
Photographs under “DAY 0” are photographs taken when the abdominal aortic aneurysm induction treatment was performed (FIG. 3(A) and FIG. 3(D)). Photographs under “DAY 7” are photographs taken at the time of laparotomy performed 7 days after the abdominal aortic aneurysm induction treatment (FIG. 3(B) and FIG. 3(E)). […] Until this time point, tricaprin had not been administered yet to the rats of the tricaprin administration group.

CCCCCCCCCC(=O)OCC(COC(=O)CCCCCCCCC)OC(=O)CCCCCCCCC [Tricaprin, tricaprin]
no difference: Blood glucose level versus control group | Cholesterol level versus control group | Neutral fats in blood versus control group
